# Measurements published in the supplement of paper PMC3334620.
# Whole data set: some 33,000 sequences, median “E-score (-0.5 to 0.5)” near -0.016, cut for the highest 2% near 0.3. Some of the results follow.
# Target: T1, Yer184c (UniProt P39961)
# T1 sequence: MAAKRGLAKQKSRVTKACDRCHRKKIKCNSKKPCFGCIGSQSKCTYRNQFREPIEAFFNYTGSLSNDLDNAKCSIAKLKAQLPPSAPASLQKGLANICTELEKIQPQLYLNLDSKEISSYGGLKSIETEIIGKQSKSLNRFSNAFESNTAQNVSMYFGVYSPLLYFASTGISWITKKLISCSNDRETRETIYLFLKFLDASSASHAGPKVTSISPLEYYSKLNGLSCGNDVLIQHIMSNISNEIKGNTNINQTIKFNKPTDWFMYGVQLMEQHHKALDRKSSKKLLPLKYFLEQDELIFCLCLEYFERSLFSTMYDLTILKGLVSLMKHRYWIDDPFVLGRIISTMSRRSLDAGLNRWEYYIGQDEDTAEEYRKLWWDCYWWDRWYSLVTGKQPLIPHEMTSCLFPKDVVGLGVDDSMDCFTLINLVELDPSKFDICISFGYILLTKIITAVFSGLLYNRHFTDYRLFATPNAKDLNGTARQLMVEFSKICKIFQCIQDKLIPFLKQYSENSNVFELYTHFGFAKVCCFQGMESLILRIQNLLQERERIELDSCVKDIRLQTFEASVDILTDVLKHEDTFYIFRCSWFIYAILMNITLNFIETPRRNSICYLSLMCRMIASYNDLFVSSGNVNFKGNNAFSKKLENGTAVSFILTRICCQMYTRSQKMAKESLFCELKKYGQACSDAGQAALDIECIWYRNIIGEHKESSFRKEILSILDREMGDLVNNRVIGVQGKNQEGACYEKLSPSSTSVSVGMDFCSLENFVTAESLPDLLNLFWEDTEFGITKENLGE
# Experiment: PBM E-score (8-mer binding enrichment) (E-score (-0.5 to 0.5)); higher = stronger / more preferred TF binding
# Details: protein concentration: 100 nM; construct: GST-full length
# Summary of the method: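 Universal all-10-mer Agilent arrays, fresh or stripped once, were converted to double-stranded form by primer extension. GST-tagged yeast transcription factors from PURExpress in vitro transcription/translation, full-length or DNA-binding domain only, were applied at about 100-200 nM and detected with fluorescent anti-GST. After masliner normalisation, the Universal PBM Analysis Suite scored each ungapped eight-base word together with its reverse complement by E-score.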
row,Sequence,PBM E-score
1,AGATGTGG,-0.116
2,AGCATGAC,-0.156
3,AATCGATC,-0.025
4,GCAAGTAC,0.0411
5,GAAAGGGC,-0.192
6,AAGACAAG,0.143
7,GGAGGGGA,-0.0719
8,GCCAACAA,-0.0403
9,CCAGCAAG,-0.126
10,CCTATGCC,-0.294
11,CACGGCCA,0.131
12,TGCGGTAA,0.169
13,GAGGTAGC,-0.25
14,ACAAAACG,0.143
15,AATAGTGT,0.267
16,CGGTCACA,0.0721
17,ACCGGTCC,0.165
18,AGCAGACC,0.123
19,AAGTCGTG,-0.0777
20,GACTAACA,0.101
21,CCTCTGTA,-0.107
22,TACCCCCA,-0.355

row,Sequence,PBM E-score
1,CGTGCTGA,0.0635
2,AGCCTTAC,-0.221
3,AACCTAGG,0.0109
4,GCCGGGAA,0.331
5,AAACGACG,0.0813
6,CAGCATCC,-0.13
7,CCGAGGGC,0.26
8,GATCCTGA,1e-05
9,CCGACGAG,0.133
10,CGGGGCAG,-0.0305
11,CTTGAATC,0.0357
12,CTGGAGGA,-0.28
13,CAAGATCC,0.116
14,GAGAACTA,0.0553
15,CACCCAAG,-0.119
16,TCATAGCA,-0.0252
17,AAGCAACG,0.0553
18,GAACCGCA,0.235
19,AACCTAGA,0.0403
20,ATGACTGA,-0.0291
21,CTAGTGGA,-0.246
22,AATGCTAC,0.0624

# 5 records drawn at random from those above, as already listed:
row,Sequence,PBM E-score
20,ATGACTGA,-0.0291
6,CAGCATCC,-0.13
9,CCGACGAG,0.133
17,AAGCAACG,0.0553
8,GATCCTGA,1e-05

# (listing goes on)

row,Sequence,PBM E-score
1,CGCATTCA,0.205
2,GTCTCTTA,0.126
3,AGAGGGCA,-0.208
4,GCGCCCAC,-0.0818
5,ACGAAACT,0.0515
6,ATTCGTCC,0.289
7,ATATACGA,-0.0964
8,CGCAGCGC,0.0137
9,ACATGTCT,-0.137
10,ATAGCGAC,-0.174
11,AAAGTGAG,0.0693
12,ATCAACCA,-0.0435
13,CCGAGCCG,0.352
14,CCGGTTAC,0.236
15,ATGATCAA,0.154
16,GGTCCTAC,-0.166
17,TATTGAAA,0.143
18,GCTGATCA,0.0248
19,ATTGCCCG,-0.0614
20,ATTCTTGA,0.0607
21,CATGGCAG,0.00514
22,AGCGCTGA,0.131

row,Sequence,PBM E-score
1,CCGCAACA,0.0725
2,CGCATCAG,0.0929
3,CCGTTCTA,0.221
4,TGAAGGAA,0.0504
5,CGCGCCAA,0.149
6,ACGGGTCG,0.0501
7,ATATCACC,0.093
8,ATTTAATG,0.289
9,ATGTAGCC,-0.275
10,ACATTGGA,-0.205
11,AGAGCCGC,0.0235
12,ACGAAGCT,-0.0235
13,AAAGGCTT,-0.112
14,AATGTTGA,-0.107
15,TGATAGAA,-0.0483
16,GATTCTTA,0.268
17,AAGTGCTG,-0.0493
18,GTATATTA,0.0582
19,ACTCATTC,0.172
20,CGCTATCC,-0.0319
